Laboratory results from article PMC11476688.
No constants are given. Whether binding was seen depends on the method and setting. Binding seen in cells or lysates may run through a third protein. Binding calls can cover weak binding; strength is not graded here. Sequences can lack the tags named with a protein.

Biological target: T1, EGFP-TRIM56 (UniProt Q9BRZ2)
T1 sequence: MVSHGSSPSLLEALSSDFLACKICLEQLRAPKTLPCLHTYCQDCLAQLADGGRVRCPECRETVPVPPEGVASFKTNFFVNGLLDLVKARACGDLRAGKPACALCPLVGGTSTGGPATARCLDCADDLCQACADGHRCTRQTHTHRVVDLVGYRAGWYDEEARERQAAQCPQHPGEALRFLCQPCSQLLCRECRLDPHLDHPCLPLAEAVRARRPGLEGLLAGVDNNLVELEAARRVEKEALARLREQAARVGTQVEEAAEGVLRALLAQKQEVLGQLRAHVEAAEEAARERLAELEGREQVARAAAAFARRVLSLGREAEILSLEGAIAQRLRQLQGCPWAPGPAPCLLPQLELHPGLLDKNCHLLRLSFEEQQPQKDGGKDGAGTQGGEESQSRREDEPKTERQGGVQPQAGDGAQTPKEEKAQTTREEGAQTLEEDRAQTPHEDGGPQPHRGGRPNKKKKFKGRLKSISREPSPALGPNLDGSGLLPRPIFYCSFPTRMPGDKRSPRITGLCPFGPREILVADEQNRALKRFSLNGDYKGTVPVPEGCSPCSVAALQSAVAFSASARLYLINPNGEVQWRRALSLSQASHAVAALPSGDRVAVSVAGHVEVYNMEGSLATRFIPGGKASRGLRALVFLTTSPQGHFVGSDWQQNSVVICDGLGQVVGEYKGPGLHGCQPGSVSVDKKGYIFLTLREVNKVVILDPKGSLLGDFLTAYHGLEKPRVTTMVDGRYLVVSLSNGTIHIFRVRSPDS
Assay: co-IP; HEK293T co-transfected with pEGFP-TRIM56 and pFlag-3D or pFlag-3D-K220R; undenatured lysate; immunomagnetic beads with anti-EGFP antibody, room temperature 1 h, 10 washes; immunoblotting

Substance	binding
Flag-tagged 3D of CVB3 (Coxsackievirus B3 (CVB3)) (enzyme)	binds
Flag-3D-K220R (Coxsackievirus B3 (CVB3)) (enzyme)	binds
